{"source": "patent US7524816B2", "about": "“Peptides and supported peptides for treating skin diseases” (Genencor International, Inc., priority 2003, dated 2009)", "molecular_target": "T1, Human VEGF165 (Homo sapiens, UniProt P15692)", "T1 construct": "purchased Biosource", "T1 sequence (P15692 27-191 isoform P15692-4)": "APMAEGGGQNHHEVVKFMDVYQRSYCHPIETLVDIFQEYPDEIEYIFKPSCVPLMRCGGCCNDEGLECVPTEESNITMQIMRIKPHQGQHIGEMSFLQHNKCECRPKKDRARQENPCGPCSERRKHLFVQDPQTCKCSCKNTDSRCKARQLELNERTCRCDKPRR", "assay": "BIAcore surface plasmon resonance binding analysis of VEGF binding peptides", "details": "1:1 Langmuir binding fit; 1000 RU VEGF, 850 RU TNF", "experimental": "FIG. 3 provides results of a BIACORE binding analysis of VEGF binding peptides. Binding curves were obtained as described in the Examples. […]\nIn this Example, experiments conducted to assess the affinities of the peptides for VEGF are described. Affinities of the peptides for VEGF were measured using a BIAcore™-3000 surface plasmon resonance system (Biacore). A CM5 sensor chip was conditioned with 50 mM NaOH, 0.1% HCl, 0.1% SDS, and 0.08% H3PO4, and activated for covalent coupling of […] using N-ethyl-N′-(3-dimethylaminopropyl)-carbodiimide hydrochloride (EDC) and N-hydroxysuccinimide (NHS) according to the supplier's instructions (Biacore). Human VEGF165 (Biosource) was diluted to 5 μg/ml in 20 mM sodium acetate, pH 4.8 and injected at a flow rate of 2 μl/min to achieve approximately 1000 to 6000 response units (RU) of coupled protein. TNF[…] (human TNF[…], Biosource, Int., Camarillo, Calif.) was similarly coupled to the CM5 sensor chip to approximately 850 to 3500 RU in the reference lane. A solution of 1 M ethanolamine was injected as a blocking agent. […]\nPeptides were synthesized using standard FMOC chemistry, purified by reverse phase HPLC to >95% purity (SynPep), and stored at 10 mg/mL in DMSO. […] Kinetic parameters were calculated using BIAevaluation 3.1 software.", "note": "For at least one compound, name, drawing or mass did not settle the structure. Positions of bridges follow the written chain, without caps; N, C: chain ends. Residues, ends and D or L forms follow the SMILES beside them.", "data": [{"compound": "CC[C@H](C)[C@@H]1NC(=O)[C@H](CC(=O)O)NC(=O)[C@@H](NC(=O)[C@H](CC(N)=O)NC(=O)[C@@H]2CCCN2C(=O)[C@H](CCC(=O)O)NC(=O)[C@@H](N)C(C)C)CSSC[C@@H](C(=O)N[C@@H](Cc2ccccc2)C(=O)N[C@@H](CCC(=O)O)C(=O)N[C@@H](CCCNC(=N)N)C(=O)N[C@@H](CC(C)C)C(N)=O)NC(=O)[C@H](CCC(=O)O)NC(=O)[C@H](Cc2c[nH]c3ccccc23)NC(=O)[C@H](CCC(=O)O)NC(=O)[C@H](Cc2c[nH]c3ccccc23)NC(=O)[C@H](CCSC)NC(=O)[C@H](C(C)C)NC(=O)[C@H](Cc2c[nH]cn2)NC1=O", "note": "[v114, reference compound] (H-VEPNCDIHVMWEWECFERL-NH2; disulfide 5-15; N-terminus and C-terminus assumed)", "values": [{"measurement": "Kd", "result": 223, "unit": "nM"}]}]}
